These are yes or no findings as the source states them, for the method shown. In cells and extracts the contact can be indirect. Some results given as binding are weak or reduced against the parent protein; the word gives no strength.
Biological target: T1, Shc (UniProt P29353)
T1 sequence (looked up): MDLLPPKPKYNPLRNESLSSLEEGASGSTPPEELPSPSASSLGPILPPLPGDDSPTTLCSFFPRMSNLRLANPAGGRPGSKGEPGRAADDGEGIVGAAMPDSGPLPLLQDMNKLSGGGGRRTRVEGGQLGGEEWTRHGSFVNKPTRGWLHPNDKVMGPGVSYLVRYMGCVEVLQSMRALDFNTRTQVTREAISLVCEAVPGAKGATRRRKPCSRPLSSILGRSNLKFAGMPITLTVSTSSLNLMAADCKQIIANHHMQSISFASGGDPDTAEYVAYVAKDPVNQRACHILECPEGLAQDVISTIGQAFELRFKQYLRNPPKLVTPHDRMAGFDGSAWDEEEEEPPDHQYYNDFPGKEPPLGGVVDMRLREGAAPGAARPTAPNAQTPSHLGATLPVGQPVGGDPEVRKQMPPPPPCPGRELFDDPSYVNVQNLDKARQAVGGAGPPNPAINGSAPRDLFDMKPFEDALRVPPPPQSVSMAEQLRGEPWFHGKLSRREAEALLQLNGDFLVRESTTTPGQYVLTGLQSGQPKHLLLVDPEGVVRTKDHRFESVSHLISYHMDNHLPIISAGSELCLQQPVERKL
Experiment: co-immunoprecipitation, western blot

Sequences of proteins named here, by UniProt entry; tags and fusion partners are left off. A change or cut given only in a name is not applied to a line headed by its entry.
UniProt O75131: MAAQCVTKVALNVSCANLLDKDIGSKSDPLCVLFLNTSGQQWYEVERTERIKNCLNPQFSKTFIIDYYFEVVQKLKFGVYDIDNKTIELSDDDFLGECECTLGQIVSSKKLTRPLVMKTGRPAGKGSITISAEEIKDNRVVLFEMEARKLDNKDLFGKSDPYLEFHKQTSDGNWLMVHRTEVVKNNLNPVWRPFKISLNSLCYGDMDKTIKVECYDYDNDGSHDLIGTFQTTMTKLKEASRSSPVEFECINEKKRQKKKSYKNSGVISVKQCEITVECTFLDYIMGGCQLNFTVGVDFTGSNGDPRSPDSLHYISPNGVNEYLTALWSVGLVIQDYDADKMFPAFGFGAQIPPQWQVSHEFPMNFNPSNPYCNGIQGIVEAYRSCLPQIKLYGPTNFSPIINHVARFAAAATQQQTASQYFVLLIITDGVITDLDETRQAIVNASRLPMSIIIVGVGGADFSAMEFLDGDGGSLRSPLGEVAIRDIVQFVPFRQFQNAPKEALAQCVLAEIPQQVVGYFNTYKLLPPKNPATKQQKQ

binding: binds
Substance: Copine III (from UniProt O75131 1-537)
